These are yes or no findings as the source states them, for the method shown. Binding seen in cells or lysates may run through a third protein. Some binding calls cover weakened binding; strength is not graded here.

The chains behind the UniProt entries cited, without tags or fusion partners.
UniProt P35222: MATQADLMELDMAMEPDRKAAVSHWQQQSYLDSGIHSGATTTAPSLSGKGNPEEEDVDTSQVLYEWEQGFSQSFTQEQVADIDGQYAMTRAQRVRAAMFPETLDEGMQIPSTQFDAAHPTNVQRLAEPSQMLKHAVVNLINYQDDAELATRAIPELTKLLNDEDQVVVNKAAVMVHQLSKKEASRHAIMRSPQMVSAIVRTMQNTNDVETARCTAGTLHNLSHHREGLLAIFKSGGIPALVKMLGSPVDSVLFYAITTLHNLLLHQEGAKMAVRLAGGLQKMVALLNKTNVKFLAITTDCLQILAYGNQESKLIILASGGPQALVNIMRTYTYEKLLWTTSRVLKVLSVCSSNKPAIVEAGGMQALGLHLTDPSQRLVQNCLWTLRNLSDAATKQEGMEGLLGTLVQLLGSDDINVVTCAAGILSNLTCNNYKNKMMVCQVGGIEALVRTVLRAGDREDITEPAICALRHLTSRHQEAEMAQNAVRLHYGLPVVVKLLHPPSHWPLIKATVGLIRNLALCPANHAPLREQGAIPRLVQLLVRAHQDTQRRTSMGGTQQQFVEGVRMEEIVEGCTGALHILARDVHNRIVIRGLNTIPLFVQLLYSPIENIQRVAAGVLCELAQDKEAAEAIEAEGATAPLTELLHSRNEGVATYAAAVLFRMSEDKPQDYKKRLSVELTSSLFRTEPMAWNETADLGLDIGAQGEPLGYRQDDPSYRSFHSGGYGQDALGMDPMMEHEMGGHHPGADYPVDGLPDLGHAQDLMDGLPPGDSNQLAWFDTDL
UniProt Q12778: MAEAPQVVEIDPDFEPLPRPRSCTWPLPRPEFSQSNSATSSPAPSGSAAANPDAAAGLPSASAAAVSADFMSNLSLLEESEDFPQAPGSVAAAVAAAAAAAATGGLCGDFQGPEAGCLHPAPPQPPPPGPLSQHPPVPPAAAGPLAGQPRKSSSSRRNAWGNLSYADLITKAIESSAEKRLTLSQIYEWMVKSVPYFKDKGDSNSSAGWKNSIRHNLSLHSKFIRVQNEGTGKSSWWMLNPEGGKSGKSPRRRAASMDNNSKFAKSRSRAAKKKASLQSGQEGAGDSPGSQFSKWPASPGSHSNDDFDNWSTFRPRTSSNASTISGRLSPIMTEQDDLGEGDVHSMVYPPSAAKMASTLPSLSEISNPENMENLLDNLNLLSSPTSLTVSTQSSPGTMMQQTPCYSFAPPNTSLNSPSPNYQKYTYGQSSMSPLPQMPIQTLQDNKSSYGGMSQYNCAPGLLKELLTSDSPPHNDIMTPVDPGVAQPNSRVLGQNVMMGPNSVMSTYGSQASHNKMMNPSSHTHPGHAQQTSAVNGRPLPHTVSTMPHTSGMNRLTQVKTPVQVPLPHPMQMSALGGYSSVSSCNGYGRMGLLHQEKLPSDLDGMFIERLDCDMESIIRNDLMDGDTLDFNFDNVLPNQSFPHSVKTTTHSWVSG

The target of this assay is β-catenin (human (endogenous in human keratinocytes)) (UniProt P35222). The assay can be described thus: co-IP; immunoprecipitation from human keratinocytes after interference of E-cadherin expression (siEcad); which protein was precipitated is not told; asked whether the two interact in the nucleus.

Turning to “forkhead box O1 (from UniProt Q12778 1-655)”, the binding result is on record as “binds”.

The values above are taken from paper PMC7757047.
